Consider one molecule from publication PMC4454200.

Results are given in words; binding and its absence hold for the method and conditions named. A result given as binding can be weak or reduced; the word gives no strength.

For this test, the target named is GST-GTD fusion protein (C-terminal 410 residues of Myo5a), wild type (mouse). The experiment in a line: pull-down; GST pull-down: 0.5 uM GST-GTD and 1 uM Myo5a-HMM with GSH-Sepharose and the indicated concentrations of Mlph-GTBDP; WB-50 buffer (20 mM MOPS-KOH pH 7.0, 50 mM NaCl, 1 mM MgCl2, 1 mM DTT, 12 uM CaM, 1 mM EGTA), 4 C, 2 hr; SDS-PAGE, Coomassie staining; both purified.

B1: Mlph-GTBDP, 26-residue Myo5a-GTD binding peptide of melanophilin with a C-terminal tyrosine (peptide, UniProt Q91V27 176-201)
peptide: RDQPLNSKKKKRLLSFRDVDFEEDSDY
Consider B1, for which the binding entry is given as “binds”.
